In all, about 320,000 compounds went through this assay and about 22,000 (6.9%) were called active. Inconclusive results, whose numbers are uncertain, are shown with a selection of clear calls. Calls follow the shape of the dose curve; as a rule, active = well fitted inhibition curve with a large enough effect; inconclusive = small, poorly fitted or top-dose-only effect, or another doubt; inactive = no such curve, though single readings can be large or run the other way. A potency beside an inconclusive call is a rough fit, not a confirmed value.
Assay: Primary qHTS for delayed death inhibitors of the malarial parasite plastid, 96 hour incubation
Conditions: P. falciparum luciferase reporter growth; series mostly up to 28.7 µM
Summary of the method: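 Two parasite generations (96 h, 37 C, 5% CO2) of compound exposure in infected erythrocytes (0.05% parasitemia, 2% hematocrit). Luciferase-reporter P. falciparum; decreased luminescence indicates inhibited growth, aimed at apicoplast-acting delayed death.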
In the case of `COc1ccc(NC(=O)CCN2CCCCC2)cc1`, the Potency is reported as active: 13.1 µM.
For `Cc1nc(N2N=C3/C(=C/c4ccc(F)cc4)CCCC3C2c2ccc(F)cc2)sc1C(=O)N(C)C` (centres undefined), the Potency was inconclusive: 4.15 µM [inhibitor, partial curve, poor fit].
With `O=C(CCc1ccc(S(=O)(=O)N2CCOCC2)cc1)OCc1nc2ccccc2s1` the Potency was inconclusive: 10.4 µM [inhibitor, single point].
For `CCOC(=O)c1ccc(NC(=O)c2ccco2)cc1`, the Potency was inconclusive: 10.4 µM [inhibitor, single point].
In the case of `COc1cc(-c2noc(-c3cccc(Cl)c3)n2)cc(OC)c1OC`, the Potency is reported as active: 14.7 µM.
With `COc1cccc(C(=O)CC(=O)C(=O)Nc2cc(OC)c(OC)c(OC)c2)c1` the Potency was inconclusive: 13.1 µM [inhibitor, partial curve].
With `O=C(NCCO)/C(=C\c1ccc([N+](=O)[O-])o1)NC(=O)c1ccccc1` the Potency was inconclusive: 14.7 µM [inhibitor, partial curve, poor fit].
For `Cc1ccc([N+](=O)[O-])c(C(=O)N/N=C/c2cccnc2)c1`, the Potency was inconclusive: 5.22 µM [inhibitor, partial curve, poor fit].
With `Cc1ccc(CNc2nc(-c3cccs3)nc3ccccc23)cc1` the Potency was inconclusive: 18.5 µM [inhibitor, single point].
For `Cc1ccc(C(=O)CSc2nnc(-c3snnc3C)n2C2CC2)cc1`, the Potency was inconclusive: 10.4 µM [inhibitor, partial curve, poor fit].
With `O=C(O)c1ccc(Nc2ccc3nonc3c2[N+](=O)[O-])cc1` the Potency was inconclusive: 18.5 µM [inhibitor, single point].
In the case of `O=C(/C=C/c1ccco1)NC(=S)Nc1cccc(C(=O)O)c1`, the Potency is reported as inconclusive: 10.4 µM [inhibitor, single point].
With `O=C(CSc1nc2cc([N+](=O)[O-])ccc2n1-c1ccc(F)cc1)NC1CCS(=O)(=O)C1` (centres undefined) the Potency was inconclusive: 10.4 µM [inhibitor, single point].
For `CCC(=O)Oc1cccc(C(=O)Nc2ccc(-c3nnc(-c4ccco4)o3)cc2)c1`, the Potency was active: 10.4 µM.
In the case of `O=C(Nc1ccc(Cl)c(Cl)c1)Nc1cc(C(=O)NC2CC2)ccc1Cl`, the Potency is reported as inconclusive: 0.0522 µM [inhibitor, full curve].
With `CC(C)(C)c1ccc(NC(=O)C2=CN3CCS(=O)(=O)N=C3C=C2)cc1` the Potency was inconclusive: 18.5 µM [inhibitor, single point].
With `Cc1onc(-c2c(Cl)cccc2Cl)c1C(=O)Nc1ccc2c(c1)OCO2` the Potency was inconclusive: 0.415 µM [inhibitor, full curve, poor fit].
With `C[C@@H]1CC=C[C@H]2[C@H]1C(=O)N(Cc1ccccc1)[C@H]2c1ccc(-c2ccoc2)cc1F` the Potency was inconclusive: 18.5 µM [inhibitor, single point].
In the case of `O=S(=O)(c1ccc(Cl)cc1)c1cnc2ccccc2n1`, the Potency is reported as active: 10.4 µM.
In the case of `COc1ccc(-c2cc(C)no2)cc1S(=O)(=O)N1CCN(c2ccc([N+](=O)[O-])cc2)CC1`, the Potency is reported as inconclusive: 18.5 µM [inhibitor, single point].
For `CCN(Cc1ccncc1)C(=O)C1CCC(=O)N(Cc2ccc(Cl)cc2)C1` (centres undefined), the Potency was inconclusive: 18.5 µM [inhibitor, single point].
In the case of `CCOC(=O)c1cnc2ccc(C(=O)OC)cc2c1NCc1ccco1`, the Potency is reported as inconclusive: 11.7 µM [inhibitor, partial curve].
In the case of `CCCc1cc(=O)oc2cc(OC(C)C(=O)NCC3CCC(C(=O)O)CC3)ccc12` (centres undefined), the Potency is reported as inconclusive: 18.5 µM [inhibitor, single point].
With `COc1cccc2c1C(=O)c1c(O)c3c(c(O)c1C2=O)C[C@](O)(C(C)=O)C[C@H]3O[C@@H]1C[C@@H](N)[C@@H](O)[C@@H](C)O1` the Potency was active: 1.17 µM.
For `C=CCn1c(NCc2ccccc2O)nc2ccccc21`, the Potency was inconclusive: 2.62 µM [inhibitor, single point].
In the case of `COCc1nnc(NC(=O)c2ccc(S(=O)(=O)N3CCCc4ccccc43)cc2)o1`, the Potency is reported as inconclusive: 13.1 µM [inhibitor, partial curve, poor fit].
For `CC(C)CN(C1CCS(=O)(=O)C1)S(=O)(=O)c1ccc2ccccc2c1` (centres undefined), the Potency was inconclusive: 18.5 µM [inhibitor, partial curve, poor fit].
For `CC(C)C[C@H]1CN=C(Nc2ccccc2)N1CCc1ccc(F)cc1`, the Potency was inconclusive: 18.5 µM [inhibitor, single point].
For `CS(=O)(=O)Nc1nnc(SCC(=O)Nc2cccc([N+](=O)[O-])c2)s1`, the Potency was inconclusive: 18.5 µM [inhibitor, single point].
For `O=C(/C=C/c1ccc2c(c1)OCO2)Nc1nc(-c2ccccc2)cs1`, the Potency was inconclusive: 0.294 µM [inhibitor, full curve, poor fit].
For `COc1ccc(C2=NOC(Cn3nc(C(=O)NCc4cccs4)cc3-c3ccccc3)C2)cc1` (centres undefined), the Potency was inconclusive: 8.28 µM [inhibitor, partial curve, poor fit].
For `O=C(NCCc1ccc(Cl)cc1)C1CC(=O)N(CCc2ccccc2)C1` (centres undefined), the Potency was active: 4.15 µM.
For `COc1ccc(C(=O)NCCSc2ccccc2)cc1OC`, the activity change, negative = inhibition was inactive: 32.1% [at 5.75 µM].
With `CCOc1cc(NC(=O)CC(C)C)c(OCC)cc1NC(=O)CCn1nnc2ccccc21` the Potency was inconclusive: 1.31 µM [inhibitor, partial curve, poor fit].
For `NC(=O)c1ccsc1NC(=O)CCS(=O)(=O)c1ccc(Cl)cc1`, the Potency was inconclusive: 18.5 µM [inhibitor, partial curve, poor fit].
With `CCOc1ccc(NC(=NCc2ccc3c(c2)OCO3)SC2CC(=O)N(c3ccccc3)C2=O)cc1` (centres undefined) the Potency was inconclusive: 0.147 µM [inhibitor, full curve, poor fit].
In the case of `CCN(c1ccccc1)S(=O)(=O)c1ccc(C(=O)Nc2ccccn2)cc1`, the Potency is reported as “inactive”.
With `Cc1cnn(-c2cc(N/N=C/c3ccc(F)cc3)ncn2)c1` the Potency was inconclusive: 0.0029 µM [inhibitor, full curve, poor fit].
In the case of `Cc1cccc(N(C)C(=O)C2CCCN2S(=O)(=O)c2cccc3nsnc23)c1` (centres undefined), the Potency is reported as inconclusive: 20.8 µM [inhibitor, partial curve, poor fit].

— PubChem BioAssay AID504834 (National Center for Advancing Translational Sciences (NCATS), 2011)
% is scaled to controls: 0 for no effect and ±100 for the full control effect; potency is read from the fitted curve at half-maximal effect.
